Values quoted from earlier work, collected in patent US20100151056A1, “DIETARY SUPPLEMENTS FOR DECREASING THE LATENT FOREIGN DNA LOAD” (priority 2008, published 2010).
At least one structure is not confirmed: it was looked up by name or label, or the drawing left a doubt.

System: AP-1 promoter (CBP)
Conditions: ligand-dependent repression via RAR or GR

Structure (SMILES)	repression of induction by TPA
CC1=C(/C=C/C(C)=C/C=C/C(C)=C/C(=O)O)C(C)(C)CCC1 [retinoic acid]	about 80%
C[C@@H]1C[C@H]2[C@@H]3CCC4=CC(=O)C=C[C@]4(C)[C@@]3(F)[C@@H](O)C[C@]2(C)[C@@]1(O)C(=O)CO [dexamethasone]	about 80%
